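A panel of P. falciparum strains inside erythrocytes is exposed to compounds for three days, then a DNA-binding dye reports the amount of parasite DNA. Each compound was titrated across a series from about 0.000037 to 29 µM. The number is the fitted AC50, the concentration giving a half-maximal change in signal; a lower value means higher potency, whether the curve shows a decrease or an increase. Calls follow the curve class and fit quality: every row here is inconclusive, covering signal-raising curves and weak, poorly fitted, partial or highest-dose-only inhibition curves.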

Values are in µM. Every entry below has the call inconclusive. Only part of the assay is shown, chiefly results filed as inconclusive. Potencies fitted to partial, single-point or poorly fitting curves are rough. The first word of each remark tells which way the curve ran; it can be opposite to the aim of the assay.

structure,setting,fitted potency (µM),remark
C=CCOC(Cn1ccnc1)c1ccc(Cl)cc1Cl (centres unmarked),C2A,10,"inhibitor, single point"
C=CCOC(Cn1ccnc1)c1ccc(Cl)cc1Cl (centres unmarked),CP305,15.1,"inhibitor, single point"
CN1[C@@H](CC(=O)c2ccccc2)CCC[C@H]1C[C@H](O)c1ccccc1,PC15,5.012,"inhibitor, partial curve"
CN1[C@@H](CC(=O)c2ccccc2)CCC[C@H]1C[C@H](O)c1ccccc1,CP191,17.78,"inhibitor, single point"
CN1[C@@H](CC(=O)c2ccccc2)CCC[C@H]1C[C@H](O)c1ccccc1,DIV30,15.1,"inhibitor, partial curve"
CN1[C@@H](CC(=O)c2ccccc2)CCC[C@H]1C[C@H](O)c1ccccc1,CP305,13.46,"inhibitor, partial curve, poor fit"
CN1[C@@H](CC(=O)c2ccccc2)CCC[C@H]1C[C@H](O)c1ccccc1,TAB109,8.912,"inhibitor, partial curve"
CN1[C@@H](CC(=O)c2ccccc2)CCC[C@H]1C[C@H](O)c1ccccc1,TAB113,14.13,"inhibitor, partial curve"
CN1[C@@H](CC(=O)c2ccccc2)CCC[C@H]1C[C@H](O)c1ccccc1,PC26,5.358,"inhibitor, partial curve"
CN1[C@@H](CC(=O)c2ccccc2)CCC[C@H]1C[C@H](O)c1ccccc1,SC27B,8.912,"inhibitor, single point"
CN1[C@@H](CC(=O)c2ccccc2)CCC[C@H]1C[C@H](O)c1ccccc1,CP256,17.78,"inhibitor, single point"
CN1[C@@H](CC(=O)c2ccccc2)CCC[C@H]1C[C@H](O)c1ccccc1,CP194,16.94,"inhibitor, single point"
CN1[C@@H](CC(=O)c2ccccc2)CCC[C@H]1C[C@H](O)c1ccccc1,ATS95,10,"inhibitor, single point"
CN1[C@@H](CC(=O)c2ccccc2)CCC[C@H]1C[C@H](O)c1ccccc1,P93_24,11.22,"inhibitor, partial curve"
CN1[C@@H](CC(=O)c2ccccc2)CCC[C@H]1C[C@H](O)c1ccccc1,CP185,12.59,"inhibitor, single point"
CN1[C@@H](CC(=O)c2ccccc2)CCC[C@H]1C[C@H](O)c1ccccc1,JCK,15.85,"inhibitor, single point"
CN1[C@@H](CC(=O)c2ccccc2)CCC[C@H]1C[C@H](O)c1ccccc1,DFO2036,12.59,"inhibitor, single point"
CN1[C@@H](CC(=O)c2ccccc2)CCC[C@H]1C[C@H](O)c1ccccc1,CP286,15.85,"inhibitor, single point"
CN1[C@@H](CC(=O)c2ccccc2)CCC[C@H]1C[C@H](O)c1ccccc1,CP252,17.78,"inhibitor, single point"
CN1[C@@H](CC(=O)c2ccccc2)CCC[C@H]1C[C@H](O)c1ccccc1,PAD,10,"inhibitor, single point"
CN1[C@@H](CC(=O)c2ccccc2)CCC[C@H]1C[C@H](O)c1ccccc1,CP217,11.22,"inhibitor, single point"
CN1[C@@H](CC(=O)c2ccccc2)CCC[C@H]1C[C@H](O)c1ccccc1,ATS189,10,"inhibitor, single point"
CN1[C@@H](CC(=O)c2ccccc2)CCC[C@H]1C[C@H](O)c1ccccc1,CP265,8.912,"inhibitor, partial curve"
CN1[C@@H](CC(=O)c2ccccc2)CCC[C@H]1C[C@H](O)c1ccccc1,CP260,12.59,"inhibitor, single point"
CN1[C@@H](CC(=O)c2ccccc2)CCC[C@H]1C[C@H](O)c1ccccc1,CP329,19.01,"inhibitor, partial curve, poor fit"
CN1[C@@H](CC(=O)c2ccccc2)CCC[C@H]1C[C@H](O)c1ccccc1,CP192,13.46,"inhibitor, single point"
CN1[C@@H](CC(=O)c2ccccc2)CCC[C@H]1C[C@H](O)c1ccccc1,CP238,11.22,"inhibitor, single point"
CN1[C@@H](CC(=O)c2ccccc2)CCC[C@H]1C[C@H](O)c1ccccc1,CP215,19.01,"inhibitor, single point"
CN1[C@@H](CC(=O)c2ccccc2)CCC[C@H]1C[C@H](O)c1ccccc1,CP291,13.46,"inhibitor, partial curve, poor fit"
CN1[C@@H](CC(=O)c2ccccc2)CCC[C@H]1C[C@H](O)c1ccccc1,ECU,11.22,"inhibitor, single point"
CC1CCC(O)C/C1=C\C=C1/CCCC2(C)C1CCC2C(C)/C=C/C(C)C(C)C (centres unmarked),DIV17,13.46,"inhibitor, single point"
CC1CCC(O)C/C1=C\C=C1/CCCC2(C)C1CCC2C(C)/C=C/C(C)C(C)C (centres unmarked),CP297,0.0012,"inhibitor, full curve, poor fit"
CC1CCC(O)C/C1=C\C=C1/CCCC2(C)C1CCC2C(C)/C=C/C(C)C(C)C (centres unmarked),GB4,19.01,"inhibitor, single point"
CC1CCC(O)C/C1=C\C=C1/CCCC2(C)C1CCC2C(C)/C=C/C(C)C(C)C (centres unmarked),7G8,17.78,"inhibitor, single point"
CC1CCC(O)C/C1=C\C=C1/CCCC2(C)C1CCC2C(C)/C=C/C(C)C(C)C (centres unmarked),PAD,17.78,"inhibitor, single point"
CC1CCC(O)C/C1=C\C=C1/CCCC2(C)C1CCC2C(C)/C=C/C(C)C(C)C (centres unmarked),DIV14,13.46,"inhibitor, single point"
CC1CCC(O)C/C1=C\C=C1/CCCC2(C)C1CCC2C(C)/C=C/C(C)C(C)C (centres unmarked),ECU,12.59,"inhibitor, single point"
CC1CCC(O)C/C1=C\C=C1/CCCC2(C)C1CCC2C(C)/C=C/C(C)C(C)C (centres unmarked),P94_40,17.78,"inhibitor, single point"
CC1CCC(O)C/C1=C\C=C1/CCCC2(C)C1CCC2C(C)/C=C/C(C)C(C)C (centres unmarked),PC26,0.0005,inhibitor
CC1CCC(O)C/C1=C\C=C1/CCCC2(C)C1CCC2C(C)/C=C/C(C)C(C)C (centres unmarked),W2,19.01,"inhibitor, single point"
CC1CCC(O)C/C1=C\C=C1/CCCC2(C)C1CCC2C(C)/C=C/C(C)C(C)C (centres unmarked),CP335,19.01,"inhibitor, single point"
CC1CCC(O)C/C1=C\C=C1/CCCC2(C)C1CCC2C(C)/C=C/C(C)C(C)C (centres unmarked),N140,19.95,"inhibitor, single point"
CC1CCC(O)C/C1=C\C=C1/CCCC2(C)C1CCC2C(C)/C=C/C(C)C(C)C (centres unmarked),P93_24,10,"inhibitor, single point"
CC1CCC(O)C/C1=C\C=C1/CCCC2(C)C1CCC2C(C)/C=C/C(C)C(C)C (centres unmarked),CP247,3.548,"inhibitor, full curve, poor fit"
CC1CCC(O)C/C1=C\C=C1/CCCC2(C)C1CCC2C(C)/C=C/C(C)C(C)C (centres unmarked),3D7,10,"inhibitor, single point"
CN1CCCN=C1COC(=O)C(O)(c1ccccc1)C1CCCCC1 (centres unmarked),CP291,4.256,"activator, partial curve, poor fit"
NC(=O)N/N=C/c1ccc([N+](=O)[O-])o1,CP269,19.01,"inhibitor, single point"
NC(=O)N/N=C/c1ccc([N+](=O)[O-])o1,CP185,12.59,"inhibitor, single point"

The first 3 entries again:

structure,setting,fitted potency (µM),remark
C=CCOC(Cn1ccnc1)c1ccc(Cl)cc1Cl (centres unmarked),C2A,10,"inhibitor, single point"
C=CCOC(Cn1ccnc1)c1ccc(Cl)cc1Cl (centres unmarked),CP305,15.1,"inhibitor, single point"
CN1[C@@H](CC(=O)c2ccccc2)CCC[C@H]1C[C@H](O)c1ccccc1,PC15,5.012,"inhibitor, partial curve"

From PubChem BioAssay record AID504749 (NCATS, 2011).